The record followed here is PMC11419264.

Chains of the proteins cited; added tags and fusions are not shown. Residues count along the entry.
UniProt P40939, residues 37-763: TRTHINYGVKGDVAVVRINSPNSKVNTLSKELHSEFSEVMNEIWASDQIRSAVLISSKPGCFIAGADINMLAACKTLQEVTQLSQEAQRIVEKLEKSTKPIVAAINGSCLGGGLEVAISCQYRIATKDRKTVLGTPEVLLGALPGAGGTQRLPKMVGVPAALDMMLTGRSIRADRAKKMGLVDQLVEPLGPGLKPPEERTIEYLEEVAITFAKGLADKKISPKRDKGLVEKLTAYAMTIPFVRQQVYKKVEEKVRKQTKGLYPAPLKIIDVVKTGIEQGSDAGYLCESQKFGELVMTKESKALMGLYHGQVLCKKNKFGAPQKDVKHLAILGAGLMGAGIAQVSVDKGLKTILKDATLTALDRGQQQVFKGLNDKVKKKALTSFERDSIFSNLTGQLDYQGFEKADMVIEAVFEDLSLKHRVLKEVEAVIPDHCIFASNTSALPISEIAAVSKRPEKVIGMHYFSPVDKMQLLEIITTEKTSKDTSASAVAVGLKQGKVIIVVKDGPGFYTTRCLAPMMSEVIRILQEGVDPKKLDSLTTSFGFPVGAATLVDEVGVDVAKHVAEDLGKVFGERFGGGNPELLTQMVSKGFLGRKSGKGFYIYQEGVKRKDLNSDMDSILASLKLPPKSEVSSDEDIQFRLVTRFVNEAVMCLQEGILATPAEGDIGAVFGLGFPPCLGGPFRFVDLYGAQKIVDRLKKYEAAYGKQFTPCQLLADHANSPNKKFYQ

Holding throughout (test): co-IP; CALHM2-myc transfected into HEK293 cells; lysis in NP-40 buffer (150 mM NaCl, 1.0% NP40, 50 mM Tris, pH 8.0); pre-cleared with Protein A beads; primary antibody overnight at 4°C; Protein A beads; western blot; IgG control
Test [1] concerns the target T1, Human CALHM2 Myc-DDK-tagged (human) (UniProt Q9HA72).
T1 sequence: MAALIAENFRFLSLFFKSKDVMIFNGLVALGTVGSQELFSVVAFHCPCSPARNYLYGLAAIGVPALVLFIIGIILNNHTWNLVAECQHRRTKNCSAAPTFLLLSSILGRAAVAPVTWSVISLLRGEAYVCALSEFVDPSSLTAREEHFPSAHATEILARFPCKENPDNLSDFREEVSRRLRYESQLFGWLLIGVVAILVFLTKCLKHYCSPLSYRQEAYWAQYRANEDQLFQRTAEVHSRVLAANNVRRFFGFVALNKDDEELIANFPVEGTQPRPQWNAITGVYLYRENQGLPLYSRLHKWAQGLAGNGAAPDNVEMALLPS

The target of test [2] is T2, ECHB, beta subunit of the mitochondrial trifunctional protein (mTFP) (human (endogenous in HEK293)) (UniProt P55084).
T2 sequence: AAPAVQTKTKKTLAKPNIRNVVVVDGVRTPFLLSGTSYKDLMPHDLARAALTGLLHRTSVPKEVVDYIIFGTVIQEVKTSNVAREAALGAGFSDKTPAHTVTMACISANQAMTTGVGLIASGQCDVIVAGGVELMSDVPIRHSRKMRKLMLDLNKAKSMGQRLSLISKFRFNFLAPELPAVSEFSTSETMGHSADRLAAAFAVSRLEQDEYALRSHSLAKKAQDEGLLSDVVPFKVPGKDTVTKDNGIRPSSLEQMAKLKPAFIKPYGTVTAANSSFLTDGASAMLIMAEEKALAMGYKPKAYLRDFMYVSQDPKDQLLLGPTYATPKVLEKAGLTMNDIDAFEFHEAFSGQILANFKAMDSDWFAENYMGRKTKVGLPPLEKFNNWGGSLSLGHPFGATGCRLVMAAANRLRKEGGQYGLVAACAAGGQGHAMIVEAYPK

For test [3], the target named is ECHA, alpha subunit of the mitochondrial trifunctional protein (mTFP) (human (endogenous in HEK293)) (UniProt P40939).

No constants are given. Whether binding was seen depends on the method and setting. Binding seen in cells or lysates may run through a third protein. Some results given as binding are weak or reduced against the parent protein; the word gives no strength. Where a sequence is shown, tags or fusion partners need not be part of it.

Take “ECHA, alpha subunit of the mitochondrial trifunctional protein (mTFP) (from UniProt P40939 37-763)”: the binding result in test [1] and in test [2] was “binds” each time.

B1: Human CALHM2 Myc-DDK-tagged (protein, UniProt Q9HA72 1-323)
chain: MAALIAENFRFLSLFFKSKDVMIFNGLVALGTVGSQELFSVVAFHCPCSPARNYLYGLAAIGVPALVLFIIGIILNNHTWNLVAECQHRRTKNCSAAPTFLLLSSILGRAAVAPVTWSVISLLRGEAYVCALSEFVDPSSLTAREEHFPSAHATEILARFPCKENPDNLSDFREEVSRRLRYESQLFGWLLIGVVAILVFLTKCLKHYCSPLSYRQEAYWAQYRANEDQLFQRTAEVHSRVLAANNVRRFFGFVALNKDDEELIANFPVEGTQPRPQWNAITGVYLYRENQGLPLYSRLHKWAQGLAGNGAAPDNVEMALLPS
As for B1, the binding result in test [3] and in test [2] was “binds” each time.
